Reference: paper PMC5688218
Results are given in words; binding and its absence hold for the method and conditions named. A result given as binding can be weak or reduced; the word gives no strength. Where a sequence is shown, tags or fusion partners need not be part of it.

By UniProt entry, the sequences of proteins in these tests, tags left out. Where a name states a change or a piece, a line headed by the entry shows the natural chain unless it says otherwise.
UniProt Q96EQ9: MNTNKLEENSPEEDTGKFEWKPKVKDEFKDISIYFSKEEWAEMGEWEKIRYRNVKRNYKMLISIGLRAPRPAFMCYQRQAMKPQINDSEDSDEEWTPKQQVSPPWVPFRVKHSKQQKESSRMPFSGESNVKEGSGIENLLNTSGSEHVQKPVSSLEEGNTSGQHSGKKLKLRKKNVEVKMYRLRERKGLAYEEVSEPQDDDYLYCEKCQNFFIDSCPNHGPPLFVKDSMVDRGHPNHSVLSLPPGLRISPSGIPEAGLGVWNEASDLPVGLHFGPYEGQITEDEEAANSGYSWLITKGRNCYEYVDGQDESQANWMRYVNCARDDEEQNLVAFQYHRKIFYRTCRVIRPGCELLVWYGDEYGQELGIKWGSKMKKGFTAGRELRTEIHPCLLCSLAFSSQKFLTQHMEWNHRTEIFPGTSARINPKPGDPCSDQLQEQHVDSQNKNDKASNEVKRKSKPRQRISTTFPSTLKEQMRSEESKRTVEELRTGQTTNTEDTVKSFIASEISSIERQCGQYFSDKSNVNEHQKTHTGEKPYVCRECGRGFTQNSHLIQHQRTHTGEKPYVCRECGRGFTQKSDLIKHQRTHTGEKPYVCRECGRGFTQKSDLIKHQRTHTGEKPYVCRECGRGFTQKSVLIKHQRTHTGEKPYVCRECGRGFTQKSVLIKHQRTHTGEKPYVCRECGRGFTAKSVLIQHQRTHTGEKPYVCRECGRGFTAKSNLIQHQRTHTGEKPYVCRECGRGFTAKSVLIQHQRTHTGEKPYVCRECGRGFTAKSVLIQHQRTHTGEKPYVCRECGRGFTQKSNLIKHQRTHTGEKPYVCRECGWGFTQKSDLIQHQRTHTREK

B1: mouse CEP70, full length (Gal4 AD fusion) (protein, UniProt Q6IQY5 1-616)
chain: MTEGSQIFLLPISTSDSTKEPLSPVASKAQDPSLLSNRLMIEKQQEEAEWESINGLLMTHGFKPLCLVKGADLRDFIVFDKQSSQKMRQILKTLMEETTRQQSMIRELIETNQQLKSELQLEQNRAAHQEQRANDLQQIMDSVKSKIGELEDESLNRVCQQQNRIKDLQKEYKMLQMKCQQYKKNRMEQEGTIASLQKEIHRLAKEEEERILTQNRVFAHLCRRVPHSVLDKQLLCLIDYYECKLRKLHIQRQFEEDSQSEEKDFTNLGASPNYKGVLMSLQKQLKESKSRIDVLVGEKLSLQKDLENRPTEHELRLYKQQVKKLEKTLKKNIKLQDLIGQKKSDDTEKKDEPSKDSHQQALIEQSYFQVLCSINSIVHNPRAPVIIYKQSKGRAPNGNKDIGQDCGFEHLVPIIEMWVDELTSLKDLYKSLKILSAELVPWHSLKKLDEKEGVKVGDLLFMVDTMLEEVENQKETSSTPNSQTLQAIVSHFQKLFDVQSLNGVFPRMNEVYTRLGEMNNAVRNLQELLELDSSSSLCVVVSTVGKLCEIINKDVSEQVKQVLGPEDLQSIIKKLEEHEEFFPAFQAFANDLLEILEIDDLDAIVPAVKKLKILSY
B2: mouse FKBP6 85–327 (Gal4 AD fusion) (domain or fragment, UniProt Q91XW8 85-327)
chain: KLGEDITLWGMELGLLSMRKGELARFLFKPAYAYGTLGCPPLIPPNATVLFEIELIDFLDSAESDKFCALSAEQQEQFPLQKVLKVAATEREFGNYLFRQNRFCDAKVRYKRALLLLHRRLATCEEQHLVEPAVLLVLLNLSFVYLKLDRPAMALRYGEQALLIDKRNAKALFRCGQACLLLTEYERARDFLVRAQKEQPCNHDINNELKKLSSHYRDYVDREREMCHRMFAPCGSRSSVGGN
B3: mouse IFT88, full length (Gal4 AD fusion) (protein, UniProt Q61371 1-824)
chain: MENVHLAPETDEDDLYSGFNDYNPAYDTEELENDTGFQQAVRTSHGRRPPVTAKIPSTAVSRPIATGYGSKTSLTSSMGRPMTGTIQDGVARPMTAVRAAGFSKAALRGSAFDPLGQSRGPAPPLEAKNEDSPEEKIRQLEKKVNELVEESCIANSCGDLKLALEKAKDAGRKERVLVRQREQVTSPENINLDLTYSVLFNLASQYSANEMYAEALNTYQVIVKNKMFSNAGRLKVNMGNIYLKQRNYSKAIKFYRMALDQIPSVHKEMRIKIMQNIGITFIKTGQYSDAINSFEHIMSMAPSLKAGFNLILSCFAIGDREKMKKAFQKLIAVPLEIDEDDKYISPSDDPHTNLLIEAIKNDHLRQMERERKAMAEKYIMTAAKLIAPVIEASFAVGYNWCVEVVKASQYVELANDLEINKAITYLRQKDFNQAVDTLKMFEKKDSRVKSAAATNLSFLYYLENEFAQASSYADLAVNSDRYNPSALTNKGNTVFANGDYEKAAEFYKEALRNDSSCTEALYNIGLTYKKLNRLDEALDSFLKLHAILRNSAQVLCQIANIYELMEDPNQAIEWLMQLISVVPTDSQALSKLGELYDSEGDKSQAFQYYYESYRYFPSNIEVIEWLGAYYIDTQFCEKAIQYFERASLIQPTQVKWQLMVASCFRRSGNYQKALDTYKEIHRKFPENVECLRFLVRLCTDIGLKEVQEYATKLKRLEKMKEMREQRIKSGRDSSGGSRSKREGSAGSDSGQNNSASSKSERLSAKLRALPGTDEPYESSGNKEIDASYVDPLGPQIERPKTAAKKRIDEDDFADEELGDDLLPE
B4: N-terminal fragment of TRIM28 (amino acid residues 1–419), Gal4 AD fusion (domain or fragment, UniProt Q13263 1-419)
chain: MAASAAAASAAAASAASGSPGPGEGSAGGEKRSTAPSAAASASASAAASSPAGGGAEALELLEHCGVCRERLRPEREPRLLPCLHSACSACLGPAAPAAANSSGDGGAAGDGTVVDCPVCKQQCFSKDIVENYFMRDSGSKAATDAQDANQCCTSCEDNAPATSYCVECSEPLCETCVEAHQRVKYTKDHTVRSTGPAKSRDGERTVYCNVHKHEPLVLFCESCDTLTCRDCQLNAHKDHQYQFLEDAVRNQRKLLASLVKRLGDKHATLQKSTKEVRSSIRQVSDVQKRVQVDVKMAILQIMKELNKRGRVLVNDAQKVTEGQQERLERQHWTMTKIQKHQEHILRFASWALESDNNTALLLSKKLIYFQLHRALKMIVDPVEPHGEMKFQWDLNAWTKSAEAFGKIVAERPGTNSTG

target: KRAB domain of mouse PRDM9 (Gal4 BD-PRDM9 KRAB) (mouse) (UniProt Q96EQ9); test: two-hybrid; Gal4 AD fusions (Y187) mated with Gal4 BD fusions (AH109); growth of diploids on −LWH and −LWHAd after 3 days at 30 °C, by streaking or spotting; 5 mM 3-AT added to −LWH for self-activating constructs

Q: With B1 as the binder, how does the binding read?
A: binds

Q: With B2 as the binder, how does the binding read?
A: binds

Q: How did the binding turn out when B3 was run?
A: binds

Q: How did the binding turn out when B4 was run?
A: no binding
